Our source for the binding values is patent US20140050720A1, “ULTRALONG COMPLEMENTARITY DETERMINING REGIONS AND USES THEREOF” (THE SCRIPPS RESEARCH INSTITUTE, priority 2012, published 2014).

In the test the target is T1, CXCR1 expressed on U2OS cells (DiscoveRx Cat#93-0226C3) (UniProt P25024).
T1 sequence (looked up): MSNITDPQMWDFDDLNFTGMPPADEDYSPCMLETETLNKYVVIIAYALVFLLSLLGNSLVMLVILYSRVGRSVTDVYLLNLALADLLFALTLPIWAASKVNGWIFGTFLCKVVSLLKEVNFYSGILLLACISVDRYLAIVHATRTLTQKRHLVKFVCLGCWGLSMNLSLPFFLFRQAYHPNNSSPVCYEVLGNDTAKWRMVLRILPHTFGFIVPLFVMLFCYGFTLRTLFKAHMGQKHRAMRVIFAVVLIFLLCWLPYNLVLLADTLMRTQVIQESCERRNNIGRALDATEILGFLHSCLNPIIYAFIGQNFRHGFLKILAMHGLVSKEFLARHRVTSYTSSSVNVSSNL
Description: flow cytometry, ratio of median fluorescence of CXCR1-U2OS against parental U2OS cells. (A flow cytometer gives signals particle by particle.)

No constants are given. Whether binding was seen depends on the method and setting. Some binding calls cover weakened binding; strength is not graded here. Tags and fused reporters may be left off the sequences shown.

B1: BLV1H12-IL8 fusion protein (antibody)
VH: QVQLRESGPSLVKPSQTLSLTCTASGFSLSDKAVGWVRQAPGKALEWLGSIDTGGNTGYNPGLKSRLSITKDNSKSQVSLSVSSVTTEDSATYYCTSVHQETKKYQSPRSAKELRCQCIKTYSKPFHPKFIKELRVIESGPHCANTEIIVKLSDGRELCLDPKENWVQRVVEKFLKRAENSGSGSYTYNYEWHVDVWGQGLLVTV
light: QAVLNQPSSVSGSLGQRVSITCSGSSSNVGNGYVSWYQLIPGSAPRTLIYGDTSRASGVPDRFSGSRSGNTATLTISSLQAEDEADYFCASAEDSSSNAVFGSGTTLTVLGQPKSPPSVTLFPPSTEELNGNKATLVCLISDFYPGSVTVVWKADGSTITRNVETTRASKQSNSKYAASSYLSLTSSDWKSKGSYSCEVTHEGSTVTKTVKPSECS
As to B1, the binding result was “binds”.
